# This is one part of the list. The main result of the screen is listed elsewhere. These columns were measured beside it and carry no call. The list favours compounds with an active or inconclusive main result. Potencies come from curve fits of mixed quality, noted in brackets.
# Test: qHTS Assay to Find Inhibitors of Chronic Active B-Cell Receptor Signaling
# Conditions: ABC-DLBCL IkBa-CBG/CBR reporter, luminescence ratio (green luciferase fused to IkBa over red control in TMD8 lymphoma cells), 4 h
# Outline: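 Doxycycline induced both beetle luciferases in TMD8 lymphoma cells; IKK-driven degradation limits the IkappaBalpha-fused green signal, while red luminescence normalises for cell number and nonspecific effects. Compounds tested up to 46 uM, 4 hrs.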
# [1] = measured here: CBR red luminescence, cell number
# [2] = measured here: IkBa-CBG green luminescence
SMILES,AC50 [1],AC50 [2]
C=CCOC(=O)CC(NC(=O)c1ccccc1)c1ccccc1 (centres undefined),"17.8 µM [rising, single point]",–
CC(=O)NC(Cc1c[nH]c2ccccc12)C(=O)OCC(=O)Nc1ccc2c(c1)OCO2 (centres undefined),"35.5 µM [rising, single point]",–
CCCn1c(=S)[nH]c2ccccc2c1=O,"10 µM [rising, partial curve]",–
COc1ccccc1C(=O)Nc1nc2cc3c(cc2s1)OCCO3,"14.1 µM [falling, partial curve, poor fit]",–
Cn1cc(S(=O)(=O)NC2CCCC2)c(=O)n(C)c1=O,"6.51 µM [rising, single point]",–
Cc1cccc(OCCCN2C(=O)C(=O)c3cc(C)ccc32)c1,"12.6 µM [rising, partial curve]","12.6 µM [falling, partial curve]"
COc1ccc(/C=N/NC(=O)c2ccc(Br)cc2)cc1Cn1cc(Cl)cn1,"3.26 µM [falling, full curve]",–
O=C(CCOc1ccccc1)Nc1ccc([N+](=O)[O-])cc1,"3.16 µM [rising, partial curve, poor fit]",–
COc1cc(NC(=O)CCS(=O)(=O)c2nc(-c3cccs3)cc(C(F)(F)F)n2)cc(OC)c1OC,"11.6 µM [falling, partial curve]","10.3 µM [rising, partial curve, poor fit]"
COc1cc(/C=C2/SC(=S)N(Cc3ccccc3)C2=O)ccc1OCC(=O)O,"10 µM [rising, partial curve, poor fit]",–
O=C(CSc1nnc(COc2ccc(Cl)cc2)o1)NC1CC2CCC1C2 (centres undefined),"35.5 µM [falling, single point]",–
Cc1c(NS(=O)(=O)c2ccc(NCC3CCCO3)c([N+](=O)[O-])c2)c(=O)n(-c2ccccc2)n1C (centres undefined),"0.112 µM [rising, full curve, poor fit]",–
COc1ccc2nc(N3CCCC(O)C3)c(C#N)cc2c1 (centres undefined),"11.2 µM [rising, partial curve, poor fit]",–
C/C(=N\NC(=O)CNC(=O)C(c1ccccc1)c1ccccc1)c1ccccc1,"0.58 µM [rising, full curve, poor fit]",–
CCOc1ccccc1OC(=O)c1cc2ccccc2oc1=O,"28.2 µM [rising, single point]",–
COc1ccc(C/C(N)=N/OC(=O)c2cccs2)cc1,"20 µM [rising, partial curve, poor fit]",–
CCCC(=O)N/C(N)=N/c1nc(C)c2cc(C)ccc2n1,"3.55 µM [falling, full curve]",–

# Look-ups from above:
# Under AC50 [1], O=C(CCOc1ccccc1)Nc1ccc([N+](=O)[O-])cc1 shows 3.16 µM [rising, partial curve, poor fit]
# Under AC50 [1], Cn1cc(S(=O)(=O)NC2CCCC2)c(=O)n(C)c1=O shows 6.51 µM [rising, single point]

# Reference: PubChem BioAssay AID493014 (National Center for Advancing Translational Sciences (NCATS), 2011)
